From PubChem BioAssay AID1347075 (National Center for Advancing Translational Sciences (NCATS), 2019)
In all, about 400,000 compounds went through this assay and about 5,500 (1.4%) were called active. The inconclusive results got no clear call from the source; some entries with a clear call stand among them for comparison. Calls come from the whole dose curve; as a rule, active = well fitted cell-killing curve with a large enough effect; inconclusive = small, poorly fitted or top-dose-only effect, or effect the other way; inactive = flat fitted curve, though single readings scatter. Potencies beside an inconclusive call are fits to weak or partial responses and may not hold up.
% is set by controls: 0 for no effect and ±100 for the full control effect; potency is the fitted concentration of half-maximal effect.

Test: qHTS assay for MDR1-selective chemotherapeutics: Primary screen using the parental adenocarcinoma cell KB-3-1; note: nearly all actives have a fitted effect of over 60% in size
Settings: KB-3-1 viability, CellTiter-Glo ATP luminescence, 72 h; activity change, negative = cytotoxic: at 46.1 µM (top of the series)
Procedure, shortened: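 Viability of parental KB-3-1 cells, measured by CellTiter-Glo luminescence, followed a 72 h incubation at 37 °C with pinned compounds in phenol-red-free DMEM containing 10% FBS.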
With `CC(C)(C)OC(=O)N1CCC(c2c(C(=O)N3CCC(c4ccccc4)C3)cnn2-c2cccc(Cl)c2)CC1` (configuration not stated) the Potency was inconclusive: 23.1 µM [cytotoxic, single point].
With `Cc1cccnc1NCc1ccc(O)c2ncccc12` the Potency was inconclusive: 23.1 µM [cytotoxic, single point].
For `Brc1ccc2ncnc(NCc3ccco3)c2c1`, the Potency was inconclusive: 20.6 µM [cytotoxic, single point].
In the case of `N#Cc1ccc(NC(=O)COc2ccc(-n3cnnn3)cc2)cc1`, the Potency is reported as inconclusive: 18.4 µM [rising, partial curve, poor fit].
In the case of `Cc1cccc(OCC(=O)N(Cc2cccs2)c2ccc(Cl)cc2)c1C`, the Potency is reported as “inactive”.
With `CC(C)C(=O)Nc1cc(S(=O)(=O)Nc2ccc(Cl)cc2)ccc1Cl` the Potency was inconclusive: 6.51 µM [cytotoxic, partial curve, poor fit].
For `O=S(=O)(N(Cc1ccccc1)[C@@H](CO)Cc1ccccc1)N(Cc1ccccc1)[C@@H](CO)Cc1ccccc1`, the Potency was inconclusive: 23.1 µM [cytotoxic, single point].
For `O=C1CSC(=S)N1N=Cc1c(O)ccc2ccccc12`, the Potency was inconclusive: 29.1 µM [cytotoxic, single point].
In the case of `COC(=O)C(C)n1cnc2c(nnn2-c2cccc(Cl)c2)c1=O` (configuration not stated), the Potency is reported as inconclusive: 20.6 µM [rising, single point].
With `COc1cc(Cl)c(C)cc1NC(=O)CNC(C)c1ccccc1OC` (configuration not stated) the Potency was inconclusive: 23.1 µM [cytotoxic, single point].
In the case of `Cn1cc([N+](=O)[O-])c(C(=O)Nc2sc3c(c2C#N)CCC3)n1`, the Potency is reported as inconclusive: 14.6 µM [cytotoxic, partial curve].
For `CC(=NCCc1c(C)[nH]c2ccc(OC(F)(F)F)cc12)C1=C(O)CC(c2ccccc2)CC1=O` (configuration not stated), the Potency was active: 4.61 µM.
With `Cc1c(C(=O)Nc2nccs2)sc2nc(-c3cccs3)cc(C(F)(F)F)c12` the Potency was active: 9.2 µM.
For `Cc1ccc(-n2nc(C)c(/C=N/NC(=O)c3cccs3)c2Cl)cc1`, the Potency was inconclusive: 25.9 µM [cytotoxic, single point].
In the case of `COc1ccc(Cc2c(O)nc(SCC(=O)c3ccc(OC)cc3)[nH]c2=O)cc1`, the Potency is reported as inconclusive: 18.4 µM [cytotoxic, single point].
With `Nc1cc(=O)[nH]c2c1CCC2` the Potency was inconclusive: 18.4 µM [rising, partial curve, poor fit].
With `CC(C)(COC(=O)C(c1ccccc1)c1ccccc1)CN1CCOCC1` the Potency was “inactive”.
For `CC(OC(=O)CCC(=O)c1cccs1)C(=O)Nc1ccc(Cl)cn1` (configuration not stated), the Potency was “inactive”.
With `O=C(Nc1ccc(S(=O)(=O)N2CCCC2)cc1)c1ccc([N+](=O)[O-])o1` the Potency was inconclusive: 4.61 µM [cytotoxic, full curve, poor fit].
For `Cc1cc(C)cc(-n2ncc3c2CCCC3NC(=O)c2cc(C)[nH]n2)c1` (configuration not stated), the Potency was inconclusive: 29.1 µM [cytotoxic, single point].
For `Cc1cccc(C)c1-n1nnnc1C(c1ccnc2ccccc12)N(C)Cc1ccccc1` (configuration not stated), the Potency was inconclusive: 23.1 µM [cytotoxic, single point].
With `O=C(NCCc1ccccc1)c1cc(Sc2cccc(Cl)c2)nc2ccccc12` the Potency was “inactive”.
In the case of `CN(C)S(=O)(=O)c1cccc(N=c2scc(-c3ccc4c(c3)NC(=O)CO4)n2CC2CCCO2)c1` (configuration not stated), the Potency is reported as inconclusive: 32.6 µM [cytotoxic, single point].
In the case of `CN(C)C(CNC(=O)c1cc(S(=O)(=O)N(C)c2ccc(F)cc2)ccc1Cl)c1cccs1` (configuration not stated), the Potency is reported as inconclusive: 16.4 µM [cytotoxic, partial curve].
With `Cc1c(Br)cccc1NC(=O)C1(C)CCN1CCc1ccccc1` (configuration not stated) the Potency was inconclusive: 10.3 µM [cytotoxic, partial curve].
With `Cc1ccc(CNCCC2=CCCCC2)cc1` the Potency was inconclusive: 18.4 µM [cytotoxic, single point].
For `CC1=C(C)C(c2ccccc2)NC(=S)N1` (configuration not stated), the Potency was “inactive”.
With `CCOc1ccc(/C=N/Nc2ccc(Cl)nn2)c(O)c1` the Potency was inconclusive: 16.4 µM [cytotoxic, single point].
With `NNC(=S)Nc1ccc(S(=O)(=O)N2CCOCC2)cc1` the Potency was “inactive”.
For `Cc1ccc(C(=O)Nc2sc3c(c2C(=O)O)CCC(C)C3)o1` (configuration not stated), the Potency was inconclusive: 3.66 µM [cytotoxic, full curve].
In the case of `CC(=O)c1csc(-c2cccc(-c3nc4ccc(Cl)cn4c3NC3CCCCC3)c2)c1`, the Potency is reported as inconclusive: 20.6 µM [cytotoxic, single point].
In the case of `O=C1CCCC2=C1C1c3ccccc3C(=O)N1c1ccc(C(=O)c3ccccc3)cc1N2` (configuration not stated), the Potency is reported as inconclusive: 29.1 µM [cytotoxic, single point].
For `O=C(CCSc1ccc(Cl)c(Cl)c1)NC12CC3CC(CC(C3)C1)C2`, the Potency was inconclusive: 29.1 µM [cytotoxic, single point].
With `NS(=O)(=O)c1ccc(NC(=S)N2CCN(c3ccc(Cl)c(Cl)c3)CC2)cc1` the Potency was inconclusive: 29.1 µM [cytotoxic, single point].
With `COc1cccc(N2CCN(C(=O)c3ccc(CS(=O)c4ccc(C)cc4)o3)CC2)c1` (configuration not stated) the Potency was active: 0.366 µM.
With `CCOc1cc(/C=C2/C(=O)ON=C2C)cc(Br)c1O` the Potency was “inactive”.
In the case of `Cc1cc2nc3c(nc2cc1C)C(O)=C3O`, the Potency is reported as “inactive”.
For `COc1ccc(CCC(C)NCc2cccc(Br)c2)cc1` (configuration not stated), the Potency was “inactive”.
In the case of `CC(C)n1c(SCC(=O)NC2CCCCC2)nnc1-c1ccco1`, the Potency is reported as inconclusive: 9.2 µM [rising, partial curve, poor fit].
For `CCOC(=O)c1cccc(NC(=O)NCc2ccc3c(c2)CCN3C(=O)c2ccccc2)c1`, the Potency was inconclusive: 29.1 µM [cytotoxic, single point].
For `COc1ccc2nc(N(CCN(C)C)C(=O)c3ccc4ncsc4c3)sc2c1`, the Potency was inconclusive: 20.6 µM [rising, single point].
For `CSc1cccc(NC(=O)c2ccc(CN3CCc4ccccc4C3)cc2)c1`, the Potency was inconclusive: 20.6 µM [cytotoxic, single point].
In the case of `CN(C)c1ccc(-c2nc3ccccn3c2/N=C/c2ccc(Br)cc2)cc1`, the Potency is reported as active: 14.6 µM.
With `COc1cc2c(cc1OC)-c1c(OC)c(OC)cc3ccnc(c13)C2=O` the Potency was inconclusive: 6.51 µM [cytotoxic, full curve, poor fit].
With `CCOc1ccccc1NC(=O)CSc1nc2cc(O)ccc2c(=O)n1-c1ccc(OC)c(OC)c1` the Potency was inconclusive: 20.6 µM [cytotoxic, single point].
In the case of `COCC(=O)OCC(=O)Nc1ccc(Cl)cc1[N+](=O)[O-]`, the Potency is reported as “inactive”.
In the case of `COc1ccc(C2(CNC(=O)C(=O)Nc3ccc(F)cc3)CCCC2)cc1OC`, the Potency is reported as inconclusive: 5.8 µM [cytotoxic, partial curve, poor fit].
With `CCOc1ccc(CN(C)C(=O)CNC(=O)c2cc(OC)c(OC)c(OC)c2)cc1` the Potency was “inactive”.
With `N#Cc1cc(O)c(-n2nnc3ccccc32)cc1C#N` the Potency was “inactive”.
In the case of `CC1=NN(C(=O)c2ccncc2)C(=O)C1N=Nc1ccc2ccccc2c1` (configuration not stated), the Potency is reported as inconclusive: 29.1 µM [cytotoxic, single point].
With `C/C(=N\OC(=O)c1ccccc1)c1cc(-c2ccc(Cl)cc2)no1` the Potency was inconclusive: 20.6 µM [cytotoxic, single point].
With `Cc1c(NC(=O)C(C)Oc2ccccc2F)c(=O)n(-c2ccccc2)n1C` (configuration not stated) the activity change, negative = cytotoxic was inconclusive: 13.8%.
With `COc1cccc(C(=O)Nc2ccc(Cl)c(C(F)(F)F)c2)c1` the Potency was “inactive”.
In the case of `Cc1ccc(NC(=O)C(c2ccccc2)N2CCN(CC(=O)NC3CC3)CC2)cc1` (configuration not stated), the Potency is reported as “inactive”.
In the case of `CCOc1ccccc1NC(=O)CSc1ccc(-c2sc(C)nc2C)nn1`, the Potency is reported as “inactive”.
In the case of `S=C(Nc1ccccn1)NC1CCCCC1`, the Potency is reported as inconclusive: 0.206 µM [rising, full curve, poor fit].
With `CCSc1nsc(NC(=O)Nc2ccccc2Cl)n1` the Potency was inconclusive: 29.1 µM [cytotoxic, single point].
In the case of `CCOC(=O)c1ccccc1NC(=O)CSc1ccc(-c2cccnc2)nn1`, the Potency is reported as “inactive”.
For `CC1CCC(NC(=O)COc2ccc(C(=O)c3ccccc3)cc2)CC1` (configuration not stated), the Potency was inconclusive: 16.4 µM [cytotoxic, single point].
For `O=C1CCn2c1c(O)c1ccccc1c2=O`, the Potency was inconclusive: 18.4 µM [cytotoxic, single point].
For `O=C(Nc1nc2cc3c(cc2s1)OCCO3)c1ccco1`, the Potency was inconclusive: 18.4 µM [cytotoxic, partial curve].
In the case of `COc1ccc(OC)c2[nH]c(=O)c(CCNC(=O)C(C)C)cc12`, the Potency is reported as “inactive”.
In the case of `S=C(c1ccc(-c2ccc(Cl)cc2)o1)N1CCCCC1`, the Potency is reported as inconclusive: 16.4 µM [cytotoxic, single point].
For `COc1ccc(-c2oc(NC(C)=O)c(C#N)c2-c2ccc(OC)cc2)cc1`, the Potency was inconclusive: 29.1 µM [cytotoxic, single point].
For `COc1ccc(-n2nnnc2S(=O)(=O)CC(=O)N2CCCCC2)cc1`, the Potency was active: 20.6 µM.
With `O=C1c2ccccc2C(=O)N1CCc1c(-c2ccccc2)[nH]c2ccccc12` the Potency was “inactive”.
With `NC(=O)c1ccsc1NC(=O)c1ccc2c(c1)CCCC2` the Potency was inconclusive: 20.6 µM [cytotoxic, single point].
In the case of `COc1ccc(Nc2nc3c(C)cccn3c(=O)c2C=O)cc1`, the Potency is reported as inconclusive: 5.8 µM [rising, partial curve, poor fit].
With `CCOc1ccccc1N1CCN(Cc2ccc(OC)c(OC)c2OC)CC1` the Potency was “inactive”.
In the case of `COc1ccc2c(c1)CCCC2=O`, the Potency is reported as “inactive”.
In the case of `COc1ccc(C2CC(O)(c3ccccc3)Oc3cc(OC)ccc32)cc1` (configuration not stated), the Potency is reported as inconclusive: 23.1 µM [cytotoxic, single point].
With `CCOc1ccc(NC(=O)CN2CCCN(Cc3cc(C)ccc3C)S2(=O)=O)cc1` the Potency was “inactive”.
